PubChem BioAssay AID1259424, University of Nebraska Medical Center | 2018

- Purpose: 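Seek colon cancer survival genes behaving like KSR1, using a six-gene signature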 (primary screen)
- System: human HCT116 colon cancer cells
- Reagents: siRNA pool against human genes, 50 nM
- Read-out: 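Six signature mRNAs by branched-DNA multiplex assay, scaled to two housekeeping genes and non-targeting median, log2; matched to mean KSR1 knockdown profile by Pearson correlation and euclidean distance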
- Scale: mean correlation with KSR1 profile: higher = expression change more like KSR1 knockdown; mean distance from KSR1 profile: higher = expression change less like KSR1 knockdown
Shown is an unselected part of about 14,000 reagents tested. 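Higher correlation or smaller distance means closer resemblance to KSR1 loss; control wells, including KSR1 knockdowns, recur on many plates.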 Further read-outs or replicates are left out here. Not stated in the record: the time to read-out.

| Gene | mean correlation with KSR1 profile | mean distance from KSR1 profile |
| --- | --- | --- |
| TM9SF3 | -0.714 | 1.67 |
| HUWE1 | -0.614 | 1.49 |
| LMO1 | 0.133 | 2.14 |
| STK31 | -0.336 | 2.92 |
| FEN1 | -0.169 | 3.58 |
| CH25H | -0.133 | 1.73 |
| RHCE | 0.481 | 2.1 |
| COX4I2 | 0.0336 | 2.38 |
| C4BPA | -0.488 | 2.05 |
| TMEM177 | 0.624 | 1.3 |
| EML4 | 0.512 | 1.24 |
| COL9A1 | -0.333 | 3.33 |
| OPRL1 | 0.626 | 1.67 |
| STK38 | -0.97 | 2.89 |
| LIPG | -0.847 | 1.25 |
| RBM41 | -0.119 | 2.02 |
| ADGRG1 | 0.97 | 0.486 |
| DRC7 | 0.731 | 1.18 |
| ABL1 | 0.234 | 1.93 |
| KLRK1 | -0.382 | 1.79 |
